Further values from the same series stand in other lists.
System: RNA isoforms in PNN 1-46 SMA type I patient-derived fibroblasts
Test: RNA Abundance Modulation (RNA isoform abundance, iFPM, HiSeq RNA sequencing)
Type: cell-based, human
Details: 3 μM
Method: Cells from a cell line of interest are cultured in conditions sufficient to yield the number of cells capable of generating enough RNA for subsequent sequencing steps. Cells from the tested cell line are contacted with a compound described herein.
To culture said cells, they are seeded, at appropriate concentrations in a volume of media in a cell culture container and incubated for 4, 5, 6, 7, 8, 9, 10, or more hours. A concentrated solution of compound in a vehicle (e.g., DMSO) is then added in sufficient volume to result in the intended final concentration of the compound, for example 100 nM, 500 nM, 1 μM, 5 μM, 10 μM, 15 μM, 20 μM, or more. The cells may also be treated with vehicle alone, as a control. A number of replicates of each concentration or control may be made (e.g., 2 replicates). The cells are then incubated at a constant temperature appropriate for cell culture of the particular cell line (e.g., 37° C.) for 6, 12, 18, 24, 48, or more hours. After incubation, the growth medium is removed and the cells are washed with the appropriate buffer (e.g., PBS). Cells are then removed from adherence to the cell culture container by treatment with a solution containing trypsin, and the trypsin subsequently quenched with the appropriate volume of buffer (e.g., DMEM-FBS). The cells are then pelleted with gentle centrifugation (e.g., ≤90×g centrifugal force) and resuspended in a buffer to lyse the cells for extraction of RNA. The cell lysates may then be frozen (e.g., at −80° C.) or, alternately, may immediately be used in a procedure to purify the RNA (e.g. by use of the RNEASY PLUS® minikit). The RNA from cell lysates is eluted in the appropriate volume of buffer (e.g., RNEASE-FREE H2O®). The resulting purified RNA may then be sequenced (e.g., using RNASeq) or analyzed using a human exon array (e.g., by GENECHIP® human exon array) to determine changes in the RNA levels in those cells treated with compound compared to those cells treated only with DMSO. The purified RNA may also be quantified by other methods known in the art.
Using the RNA data obtained from sequencing, exon array, or other methods, a statistical analysis can reveal changes in the RNA levels of compound-treated compared with control. For example, t-test p-values may be calculated for the data obtained through sequencing and exon array methods in order to compare compound-treated cells to those treated with the DMSO control. […] Analysis of the sequencing and exon array data may then also yield predictions about the cause of the aberrant amount of an RNA transcript in the cells (e.g., perturbation of RNA splicing, RNA transcription, or RNA stability). These predictions may be further confirmed by methods known in the art. For example, RT-PCR and RT-qPCR may be used to confirm the change in amount of RNA transcripts for one or more particular transcripts of interest.
Following the methods described above in Example 1, PNN 1-46 SMA type I patient-derived fibroblasts were treated with 300 nM or 3 μM Compounds 774 and 808 in 0.5% DMSO.
700,000 cells were seeded in 10 mL of medium (DMEM plus 10% FBS) in a T-75 flask. Cells were allowed to attach for at least 4 hrs, after which 50 μL of a 200× compound solution (100% DMSO) was added to each well, and the plate was incubated at 37° C. for 24 hrs.
At the end of the incubation period, the supernatant was removed and the cells where washed with PBS. TrypLE (Invitrogen) express solution was added (e.g. 1.5 mL per one T75 flask). The flasks were incubated for 3 to 5 min at 37° C. The trypsin was then quenched, e.g., by adding 10 mL DMEM-FBS.
Next, the cells were pelleted using gentle centrifugation without exceeding 90×g centrifugal force. The supernatant was removed and the cell pellet was re-suspended in 600 μL RLT buffer (the RLT buffer was supplemented with beta-mercaptoethanol according to the RNeasy protocol manual) by pipetting up and down until the pellet was completely dissolved […]

CCc1nc(C)cn2nc(-c3cc(=O)n4cc(C5CCN(C)CC5)cc(C)c4n3)cc12 [Compound 774]
L2abs (Cpd-DMSO) (FYN AY429536): −1.67 | abs (Cpd-DMSO) (FYN AY429536): 0 iFPM | amp FC (x + 1) (FYN AY429536): 1.32 | ave Cpd (FYN AY429536): 0 iFPM | FC (x + 1) (FYN BC015055): 0.4261 | L2FC (x + 1) (FYN BC015055): −1.231 | L2abs (Cpd-DMSO) (FYN BC015055): 8.34 | abs (Cpd-DMSO) (FYN BC015055): 324 iFPM | amp FC (x + 1) (FYN BC015055): 2.35 | ave Cpd (FYN BC015055): 239 iFPM | FC (x + 1) (FYN NM_002037): 0.9584 | L2FC (x + 1) (FYN NM_002037): −0.061 | L2abs (Cpd-DMSO) (FYN NM_002037): 5.84 | abs (Cpd-DMSO) (FYN NM_002037): 57 iFPM | amp FC (x + 1) (FYN NM_002037): 1.04 | ave Cpd (FYN NM_002037): 1320 iFPM | FC (x + 1) (FYN NM_153047): 0.8952 | L2FC (x + 1) (FYN NM_153047): −0.160 | L2abs (Cpd-DMSO) (FYN NM_153047): 5.93 | abs (Cpd-DMSO) (FYN NM_153047): 61 iFPM | amp FC (x + 1) (FYN NM_153047): 1.12 | ave Cpd (FYN NM_153047): 521 iFPM | FC (x + 1) (FYN NM_153048): 1.0000 | L2FC (x + 1) (FYN NM_153048): 0.000 | L2abs (Cpd-DMSO) (FYN NM_153048): 0 | abs (Cpd-DMSO) (FYN NM_153048): 0 iFPM | amp FC (x + 1) (FYN NM_153048): 1.00 | ave Cpd (FYN NM_153048): 0 iFPM | FC (x + 1) (GABPB1 AK303901): 0.6876 | L2FC (x + 1) (GABPB1 AK303901): −0.540 | L2abs (Cpd-DMSO) (GABPB1 AK303901): 2.33 | abs (Cpd-DMSO) (GABPB1 AK303901): 5 iFPM | amp FC (x + 1) (GABPB1 AK303901): 1.45 | ave Cpd (GABPB1 AK303901): 10 iFPM | FC (x + 1) (GABPB1 D13316): 0.6120 | L2FC (x + 1) (GABPB1 D13316): −0.708 | L2abs (Cpd-DMSO) (GABPB1 D13316): 4.96 | abs (Cpd-DMSO) (GABPB1 D13316): 31 iFPM | amp FC (x + 1) (GABPB1 D13316): 1.63 | ave Cpd (GABPB1 D13316): 48 iFPM | FC (x + 1) (GABPB1 NM_002041): 2.0203 | L2FC (x + 1) (GABPB1 NM_002041): 1.015 | L2abs (Cpd-DMSO) (GABPB1 NM_002041): 5.32 | abs (Cpd-DMSO) (GABPB1 NM_002041): 40 iFPM | amp FC (x + 1) (GABPB1 NM_002041): 2.02 | ave Cpd (GABPB1 NM_002041): 78 iFPM | FC (x + 1) (GABPB1 NM_005254): 0.8504 | L2FC (x + 1) (GABPB1 NM_005254): −0.234 | L2abs (Cpd-DMSO) (GABPB1 NM_005254): 6.05 | abs (Cpd-DMSO) (GABPB1 NM_005254): 66 iFPM | amp FC (x + 1) (GABPB1 NM_005254): 1.18 | ave Cpd (GABPB1 NM_005254): 375 iFPM | FC (x + 1) (GABPB1 NM_016654): 3.8139 | L2FC (x + 1) (GABPB1 NM_016654): 1.931 | L2abs (Cpd-DMSO) (GABPB1 NM_016654): 7.61 | abs (Cpd-DMSO) (GABPB1 NM_016654): 195 iFPM | amp FC (x + 1) (GABPB1 NM_016654): 3.81 | ave Cpd (GABPB1 NM_016654): 263 iFPM | FC (x + 1) (GABPB1 NM_016655): 0.2239 | L2FC (x + 1) (GABPB1 NM_016655): −2.159 | L2abs (Cpd-DMSO) (GABPB1 NM_016655): 6.15 | abs (Cpd-DMSO) (GABPB1 NM_016655): 71 iFPM | amp FC (x + 1) (GABPB1 NM_016655): 4.47 | ave Cpd (GABPB1 NM_016655): 19 iFPM | FC (x + 1) (GABPB1 NM_181427): 1.7862 | L2FC (x + 1) (GABPB1 NM_181427): 0.837 | L2abs (Cpd-DMSO) (GABPB1 NM_181427): 5.30 | abs (Cpd-DMSO) (GABPB1 NM_181427): 40 iFPM | amp FC (x + 1) (GABPB1 NM_181427): 1.79 | ave Cpd (GABPB1 NM_181427): 89 iFPM | FC (x + 1) (GALC AK302683): 0.7522 | L2FC (x + 1) (GALC AK302683): −0.411 | L2abs (Cpd-DMSO) (GALC AK302683): −0.21 | abs (Cpd-DMSO) (GALC AK302683): 1 iFPM | amp FC (x + 1) (GALC AK302683): 1.33 | ave Cpd (GALC AK302683): 2 iFPM | FC (x + 1) (GALC D25284): 0.4748 | L2FC (x + 1) (GALC D25284): −1.075 | L2abs (Cpd-DMSO) (GALC D25284): 0.59 | abs (Cpd-DMSO) (GALC D25284): 2 iFPM | amp FC (x + 1) (GALC D25284): 2.11 | ave Cpd (GALC D25284): 0 iFPM | FC (x + 1) (GALC NM_000153): 0.1615 | L2FC (x + 1) (GALC NM_000153): −2.631 | L2abs (Cpd-DMSO) (GALC NM_000153): 8.63 | abs (Cpd-DMSO) (GALC NM_000153): 395 iFPM | amp FC (x + 1) (GALC NM_000153): 6.19 | ave Cpd (GALC NM_000153): 75 iFPM | FC (x + 1) (GALC NM_001201401): 1.0000 | L2FC (x + 1) (GALC NM_001201401): 0.000 | L2abs (Cpd-DMSO) (GALC NM_001201401): 0 | abs (Cpd-DMSO) (GALC NM_001201401): 0 iFPM | amp FC (x + 1) (GALC NM_001201401): 1.00 | ave Cpd (GALC NM_001201401): 0 iFPM | FC (x + 1) (GALC NM_001201402): 31.6822 | L2FC (x + 1) (GALC NM_001201402): 4.986 | L2abs (Cpd-DMSO) (GALC NM_001201402): 4.94 | abs (Cpd-DMSO) (GALC NM_001201402): 31 iFPM | amp FC (x + 1) (GALC NM_001201402): 31.68 | ave Cpd (GALC NM_001201402): 31 iFPM | FC (x + 1) (GAS7 AK293755): 1.0000 | L2FC (x + 1) (GAS7 AK293755): 0.000 | L2abs (Cpd-DMSO) (GAS7 AK293755): 0 | abs (Cpd-DMSO) (GAS7 AK293755): 0 iFPM | amp FC (x + 1) (GAS7 AK293755): 1.00 | ave Cpd (GAS7 AK293755): 0 iFPM | FC (x + 1) (GAS7 AK294829): 1.5112 | L2FC (x + 1) (GAS7 AK294829): 0.596 | L2abs (Cpd-DMSO) (GAS7 AK294829): 6.32 | abs (Cpd-DMSO) (GAS7 AK294829): 80 iFPM | amp FC (x + 1) (GAS7 AK294829): 1.51 | ave Cpd (GAS7 AK294829): 235 iFPM | FC (x + 1) (GAS7 NM_003644): 0.0159 | L2FC (x + 1) (GAS7 NM_003644): −5.978 | L2abs (Cpd-DMSO) (GAS7 NM_003644): 5.95 | abs (Cpd-DMSO) (GAS7 NM_003644): 62 iFPM | amp FC (x + 1) (GAS7 NM_003644): 63.03 | ave Cpd (GAS7 NM_003644): 0 iFPM | FC (x + 1) (GAS7 NM_201433): 0.8704 | L2FC (x + 1) (GAS7 NM_201433): −0.200 | L2abs (Cpd-DMSO) (GAS7 NM_201433): 6.85 | abs (Cpd-DMSO) (GAS7 NM_201433): 115 iFPM | amp FC (x + 1) (GAS7 NM_201433): 1.15

Reference: patent publication US10688099B2, “Methods for modulating the amount of RNA transcripts” (PTC Therapeutics, Inc., priority 2013, dated 2020)
